Some of the results follow. Residues, ends and D or L forms follow the SMILES beside them. *: point of attachment. Cbz = O=C(OCc1ccccc1)*
Assays:
Test in all cases: log2 fold change, soluble protein after heating vs DMSO (PISA); higher = thermal stabilisation; K562 cells, 10 uM, 30 min; active = over 0.2 and 3.5 SD of the protein, either way, in both replicates (recomputed)
erlotinib = compound: C#Cc1cccc(Nc2ncnc3cc(OCCOC)c(OCCOC)cc23)c1 [erlotinib]
Procedure, shortened: (§1)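 K562 cells at 2×10^6 cells/mL were exposed to 10 μM compound for 30 min, then aliquots were heated for 3 min across 48°C-58°C, pooled, and extracted in PBS containing 0.5% NP-40 at 4°C. The supernatant after 21,000xg for 90 min was taken as soluble protein and measured by TMTpro 16plex LC-MS/MS with channel sums equalised. Thermal stability is reported relative to control samples, with values from duplicates. Fold changes are given on a log2 scale.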

By UniProt entry, the sequences of proteins in these tests, tags left out. Where a name states a change or a piece, a line headed by the entry shows the natural chain unless it says otherwise.
UniProt Q06055: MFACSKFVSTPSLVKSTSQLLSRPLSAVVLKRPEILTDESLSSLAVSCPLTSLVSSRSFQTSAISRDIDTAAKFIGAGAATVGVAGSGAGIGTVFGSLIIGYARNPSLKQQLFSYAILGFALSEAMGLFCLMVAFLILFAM
UniProt Q9H2C2: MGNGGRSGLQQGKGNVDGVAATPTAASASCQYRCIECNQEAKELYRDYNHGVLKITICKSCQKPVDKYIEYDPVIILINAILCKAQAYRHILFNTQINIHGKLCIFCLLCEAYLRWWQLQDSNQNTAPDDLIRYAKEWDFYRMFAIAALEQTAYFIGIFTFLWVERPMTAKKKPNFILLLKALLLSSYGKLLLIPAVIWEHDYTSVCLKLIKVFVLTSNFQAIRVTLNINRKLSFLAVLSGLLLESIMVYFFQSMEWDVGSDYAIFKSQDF
UniProt Q676U5: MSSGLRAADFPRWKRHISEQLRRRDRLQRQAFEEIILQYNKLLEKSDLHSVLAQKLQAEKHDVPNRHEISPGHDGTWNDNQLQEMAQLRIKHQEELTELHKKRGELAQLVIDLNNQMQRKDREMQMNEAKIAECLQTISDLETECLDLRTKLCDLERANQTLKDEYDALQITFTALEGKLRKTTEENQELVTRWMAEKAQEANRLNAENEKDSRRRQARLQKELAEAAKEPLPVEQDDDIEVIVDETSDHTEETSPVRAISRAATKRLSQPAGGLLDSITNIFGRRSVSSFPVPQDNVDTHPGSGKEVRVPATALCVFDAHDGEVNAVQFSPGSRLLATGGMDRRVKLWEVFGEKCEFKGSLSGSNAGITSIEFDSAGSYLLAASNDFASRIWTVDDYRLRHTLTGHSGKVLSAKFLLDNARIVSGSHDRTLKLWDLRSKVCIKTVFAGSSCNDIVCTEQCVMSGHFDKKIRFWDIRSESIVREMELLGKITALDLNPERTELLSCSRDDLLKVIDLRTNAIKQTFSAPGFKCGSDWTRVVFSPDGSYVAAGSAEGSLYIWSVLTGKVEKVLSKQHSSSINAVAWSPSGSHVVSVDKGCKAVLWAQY
UniProt Q8IZT6: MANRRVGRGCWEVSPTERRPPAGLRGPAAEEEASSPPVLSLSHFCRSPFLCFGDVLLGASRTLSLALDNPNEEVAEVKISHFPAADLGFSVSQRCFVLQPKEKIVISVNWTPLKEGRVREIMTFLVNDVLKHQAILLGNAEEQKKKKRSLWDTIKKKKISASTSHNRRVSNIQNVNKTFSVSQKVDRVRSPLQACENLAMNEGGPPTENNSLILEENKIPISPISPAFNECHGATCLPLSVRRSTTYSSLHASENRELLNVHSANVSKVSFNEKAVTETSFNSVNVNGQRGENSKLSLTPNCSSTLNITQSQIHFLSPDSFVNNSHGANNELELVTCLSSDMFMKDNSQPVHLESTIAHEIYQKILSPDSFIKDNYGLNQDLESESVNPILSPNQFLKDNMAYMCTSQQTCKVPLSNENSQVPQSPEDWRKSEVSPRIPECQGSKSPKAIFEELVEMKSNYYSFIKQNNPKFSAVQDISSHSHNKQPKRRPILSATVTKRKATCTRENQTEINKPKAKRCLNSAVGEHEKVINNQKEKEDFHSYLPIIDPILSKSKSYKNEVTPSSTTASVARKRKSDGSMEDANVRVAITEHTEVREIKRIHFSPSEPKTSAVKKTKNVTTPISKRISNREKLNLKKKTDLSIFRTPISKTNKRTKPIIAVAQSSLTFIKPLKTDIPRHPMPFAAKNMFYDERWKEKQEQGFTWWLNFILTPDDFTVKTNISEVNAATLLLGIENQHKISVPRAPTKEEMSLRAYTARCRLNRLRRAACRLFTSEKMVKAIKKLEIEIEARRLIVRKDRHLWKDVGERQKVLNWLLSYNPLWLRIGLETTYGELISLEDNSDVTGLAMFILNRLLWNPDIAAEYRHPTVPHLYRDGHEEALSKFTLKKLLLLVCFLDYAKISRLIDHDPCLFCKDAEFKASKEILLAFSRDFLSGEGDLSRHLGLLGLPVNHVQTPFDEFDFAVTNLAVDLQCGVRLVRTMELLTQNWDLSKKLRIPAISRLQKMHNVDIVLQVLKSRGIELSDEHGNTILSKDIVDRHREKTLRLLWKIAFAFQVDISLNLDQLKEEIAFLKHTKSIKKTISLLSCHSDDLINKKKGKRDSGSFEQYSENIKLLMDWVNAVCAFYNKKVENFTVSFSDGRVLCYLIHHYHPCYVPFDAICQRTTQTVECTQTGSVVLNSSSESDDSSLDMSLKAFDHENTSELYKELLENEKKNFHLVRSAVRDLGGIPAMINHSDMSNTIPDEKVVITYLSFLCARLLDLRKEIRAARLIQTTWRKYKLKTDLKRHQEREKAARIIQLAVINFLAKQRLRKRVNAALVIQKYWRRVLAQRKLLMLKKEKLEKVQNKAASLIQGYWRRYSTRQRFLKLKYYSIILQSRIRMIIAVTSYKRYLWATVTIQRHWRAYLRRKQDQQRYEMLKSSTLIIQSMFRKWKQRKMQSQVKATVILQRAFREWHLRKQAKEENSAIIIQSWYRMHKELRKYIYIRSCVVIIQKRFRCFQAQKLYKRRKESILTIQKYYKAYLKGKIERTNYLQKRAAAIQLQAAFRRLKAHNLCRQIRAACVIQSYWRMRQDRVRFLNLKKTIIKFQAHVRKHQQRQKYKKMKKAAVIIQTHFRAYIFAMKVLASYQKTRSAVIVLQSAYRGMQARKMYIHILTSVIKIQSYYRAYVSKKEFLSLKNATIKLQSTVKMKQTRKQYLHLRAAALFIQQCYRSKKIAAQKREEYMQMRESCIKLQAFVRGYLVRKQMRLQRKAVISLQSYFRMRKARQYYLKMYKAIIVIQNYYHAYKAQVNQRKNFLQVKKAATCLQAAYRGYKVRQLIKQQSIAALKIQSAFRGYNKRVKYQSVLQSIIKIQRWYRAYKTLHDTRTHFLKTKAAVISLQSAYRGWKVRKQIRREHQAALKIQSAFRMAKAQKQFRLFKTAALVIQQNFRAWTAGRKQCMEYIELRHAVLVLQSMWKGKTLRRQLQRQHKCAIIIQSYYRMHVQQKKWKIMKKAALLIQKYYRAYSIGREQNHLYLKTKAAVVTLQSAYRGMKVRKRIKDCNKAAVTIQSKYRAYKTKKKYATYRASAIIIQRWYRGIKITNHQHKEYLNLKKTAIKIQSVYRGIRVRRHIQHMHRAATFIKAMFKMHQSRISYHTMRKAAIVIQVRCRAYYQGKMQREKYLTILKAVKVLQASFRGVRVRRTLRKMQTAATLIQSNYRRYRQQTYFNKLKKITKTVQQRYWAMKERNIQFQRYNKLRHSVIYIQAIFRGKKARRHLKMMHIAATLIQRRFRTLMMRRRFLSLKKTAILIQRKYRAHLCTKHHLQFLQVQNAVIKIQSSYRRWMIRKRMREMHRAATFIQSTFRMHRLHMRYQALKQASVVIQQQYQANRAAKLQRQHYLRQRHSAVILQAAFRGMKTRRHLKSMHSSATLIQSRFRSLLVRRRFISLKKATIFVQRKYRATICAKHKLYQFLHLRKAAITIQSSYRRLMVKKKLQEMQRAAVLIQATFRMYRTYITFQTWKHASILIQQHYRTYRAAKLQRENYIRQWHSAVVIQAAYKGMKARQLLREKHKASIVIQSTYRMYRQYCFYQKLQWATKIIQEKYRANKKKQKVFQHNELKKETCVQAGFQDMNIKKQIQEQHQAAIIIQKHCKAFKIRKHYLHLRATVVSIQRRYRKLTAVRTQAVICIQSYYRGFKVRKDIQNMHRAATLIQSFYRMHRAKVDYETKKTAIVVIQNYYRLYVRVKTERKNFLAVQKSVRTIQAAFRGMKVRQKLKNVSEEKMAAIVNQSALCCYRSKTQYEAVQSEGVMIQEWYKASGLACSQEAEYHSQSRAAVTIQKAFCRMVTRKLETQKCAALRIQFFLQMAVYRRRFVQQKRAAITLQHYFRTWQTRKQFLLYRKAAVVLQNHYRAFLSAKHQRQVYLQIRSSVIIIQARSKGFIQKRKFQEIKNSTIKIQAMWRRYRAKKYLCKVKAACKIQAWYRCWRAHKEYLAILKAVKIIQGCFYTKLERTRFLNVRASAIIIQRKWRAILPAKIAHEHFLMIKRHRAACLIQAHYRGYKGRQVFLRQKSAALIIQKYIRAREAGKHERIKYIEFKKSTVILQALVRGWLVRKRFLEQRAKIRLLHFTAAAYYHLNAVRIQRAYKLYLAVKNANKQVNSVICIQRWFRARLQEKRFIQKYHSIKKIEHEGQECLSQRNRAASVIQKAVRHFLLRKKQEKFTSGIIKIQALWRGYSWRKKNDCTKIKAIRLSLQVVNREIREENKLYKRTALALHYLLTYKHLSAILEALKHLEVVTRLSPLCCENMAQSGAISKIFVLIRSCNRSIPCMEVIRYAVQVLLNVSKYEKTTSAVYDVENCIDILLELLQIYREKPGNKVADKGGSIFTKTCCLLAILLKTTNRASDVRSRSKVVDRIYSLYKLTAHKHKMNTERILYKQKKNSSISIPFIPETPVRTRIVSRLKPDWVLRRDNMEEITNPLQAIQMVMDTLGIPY
UniProt Q9H993: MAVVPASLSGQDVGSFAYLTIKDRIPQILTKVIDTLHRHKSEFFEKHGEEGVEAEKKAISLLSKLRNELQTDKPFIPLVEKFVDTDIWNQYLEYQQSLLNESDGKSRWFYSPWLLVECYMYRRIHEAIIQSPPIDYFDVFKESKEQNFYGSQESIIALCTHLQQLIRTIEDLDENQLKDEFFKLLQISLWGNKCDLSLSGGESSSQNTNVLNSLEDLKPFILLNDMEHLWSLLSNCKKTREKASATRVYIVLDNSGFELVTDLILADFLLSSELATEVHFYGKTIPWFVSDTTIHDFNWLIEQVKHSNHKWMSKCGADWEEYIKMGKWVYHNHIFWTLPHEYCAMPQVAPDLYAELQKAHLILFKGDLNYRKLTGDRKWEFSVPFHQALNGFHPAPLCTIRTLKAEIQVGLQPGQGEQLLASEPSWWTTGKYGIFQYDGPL
UniProt P18859: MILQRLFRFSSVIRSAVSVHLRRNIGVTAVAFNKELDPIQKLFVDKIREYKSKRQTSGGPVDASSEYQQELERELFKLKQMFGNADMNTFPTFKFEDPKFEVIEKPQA
UniProt Q13510, whole entry, looked up: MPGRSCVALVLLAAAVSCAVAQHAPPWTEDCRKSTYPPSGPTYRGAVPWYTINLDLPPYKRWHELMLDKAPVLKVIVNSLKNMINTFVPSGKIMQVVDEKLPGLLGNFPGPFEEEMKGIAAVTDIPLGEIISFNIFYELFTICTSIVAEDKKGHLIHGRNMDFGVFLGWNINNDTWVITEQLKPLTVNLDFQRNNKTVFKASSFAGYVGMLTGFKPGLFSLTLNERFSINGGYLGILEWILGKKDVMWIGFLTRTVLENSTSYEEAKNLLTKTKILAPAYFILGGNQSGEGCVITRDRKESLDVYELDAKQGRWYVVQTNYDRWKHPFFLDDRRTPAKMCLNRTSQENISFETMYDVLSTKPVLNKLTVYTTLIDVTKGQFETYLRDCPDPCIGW
UniProt P49407: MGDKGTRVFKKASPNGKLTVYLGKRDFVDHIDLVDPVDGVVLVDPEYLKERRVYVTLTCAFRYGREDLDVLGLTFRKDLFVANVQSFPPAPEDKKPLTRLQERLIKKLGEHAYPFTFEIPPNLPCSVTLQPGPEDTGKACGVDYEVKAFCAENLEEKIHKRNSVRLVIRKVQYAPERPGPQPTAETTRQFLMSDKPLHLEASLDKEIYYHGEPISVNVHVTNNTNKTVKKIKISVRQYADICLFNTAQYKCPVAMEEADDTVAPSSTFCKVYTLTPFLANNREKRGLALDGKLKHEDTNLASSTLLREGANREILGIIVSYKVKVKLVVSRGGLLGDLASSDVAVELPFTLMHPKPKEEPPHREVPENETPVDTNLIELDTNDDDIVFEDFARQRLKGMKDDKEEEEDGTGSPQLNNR
UniProt Q96BM9: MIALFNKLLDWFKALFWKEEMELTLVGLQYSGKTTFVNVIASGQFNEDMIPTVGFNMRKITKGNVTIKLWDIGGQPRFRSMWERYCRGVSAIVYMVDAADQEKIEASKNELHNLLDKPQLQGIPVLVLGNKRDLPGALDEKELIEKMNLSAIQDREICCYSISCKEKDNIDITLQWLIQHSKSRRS
UniProt Q5TC12: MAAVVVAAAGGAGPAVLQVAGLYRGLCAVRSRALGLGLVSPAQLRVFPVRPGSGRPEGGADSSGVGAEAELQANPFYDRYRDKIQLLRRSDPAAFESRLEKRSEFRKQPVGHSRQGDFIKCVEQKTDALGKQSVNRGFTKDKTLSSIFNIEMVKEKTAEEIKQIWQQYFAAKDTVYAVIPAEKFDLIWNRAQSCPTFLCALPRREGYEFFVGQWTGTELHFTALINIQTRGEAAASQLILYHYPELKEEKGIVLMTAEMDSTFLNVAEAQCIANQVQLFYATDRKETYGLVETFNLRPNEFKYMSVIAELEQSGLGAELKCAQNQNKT

[1] = compound: C/C(=N\NC(=O)C1=CC(=CC=C1)S(=O)(=O)N2CCOCC2)/C3=C(C=CC(=C3)Cl)O
Procedure, shortened: as §1

[2] = compound: C1=CC(=C(C=C1Cl)C2=NC3=NC=CN=C3C(=N2)NC4=CC=NC=C4)F
Procedure, shortened: as §1

[3] = compound: C1=CC(=CC=C1C2=NC3=C(N2)C=C(C=C3)C(=O)N)OC4=CC=C(C=C4)Cl
Procedure, shortened: as §1

[4] = compound: C1=CC2=C(C=CC(=C2)/C=C\3/C(=O)NC(=NCC4=CC=CS4)S3)N=C1
Procedure, shortened: as §1

[5] = compound: C1=CC2=NC=CN=C2C=C1/C=C/3\C(=O)NC(=O)S3
Procedure, shortened: as §1

[6] = compound: C1=CC=C(C=C1)C2=NC(=C(N2)C3=CC=NC=C3)C4=CC(=C(C=C4)Cl)O
Procedure, shortened: as §1

[7] = compound: C1=CC=C2C(=C1)C3=NNC4=CC=CC(=C43)C2=O
Procedure, shortened: as §1

[8] = compound: C1CCN(C1)C(=O)NC2=CC=CC(=C2)NC3=NC=C(C(=N3)NCCC4=CN=CN4)Br
Procedure, shortened: as §1

[9] = compound: C1CN(CCC1(CC2=CC=C(C=C2)Cl)N)C3=NC=NC4=C3C=CN4
Procedure, shortened: as §1

IRAK-1-4 Inhibitor I = compound: C1COCCN1CCN2C3=CC=CC=C3N=C2NC(=O)C4=CC(=CC=C4)[N+](=O)[O-] [IRAK-1-4 Inhibitor I]
Procedure, shortened: as §1

ibrutinib = compound: C=CC(=O)N1CCC[C@@H](n2nc(-c3ccc(Oc4ccccc4)cc3)c3c(N)ncnc32)C1 [ibrutinib]
Procedure, shortened: as §1

[10] = compound: CC(=O)c1cnc2ccc(-c3cc(Cl)c(O)c(Cl)c3)nc2c1N[C@H]1CC[C@H](CN(C)C)CC1
Procedure, shortened: as §1

ralimetinib = compound: CC(C)(C)Cn1c(N)nc2ccc(-c3[nH]c(C(C)(C)C)nc3-c3ccc(F)cc3)nc21 [ralimetinib]
Procedure, shortened: as §1

[11] = compound: CC(C)(O)CC(=O)NCCn1ccc2ncnc(Nc3ccc(Oc4cccc(C(F)(F)F)c4)c(Cl)c3)c21
Procedure, shortened: as §1

[12] = compound: CC(C)C1=C2N=C(C=C(N2N=C1)NCC3=CC=CC=C3)NCCCCCCN
Procedure, shortened: as §1

[13] = compound: CC(C)C[C@@H](C=O)NC(=O)[C@H](CC(C)C)NC(=O)[C@H](CC(C)C)NC(=O)OCc1ccccc1
Procedure, shortened: as §1

pinometostat = compound: CC(C)N(C[C@H]1O[C@@H](n2cnc3c(N)ncnc32)[C@H](O)[C@@H]1O)[C@H]1C[C@@H](CCc2nc3cc(C(C)(C)C)ccc3[nH]2)C1 [pinometostat]
Procedure, shortened: as §1

[14] = compound: CC1=C(C(CC(=O)N1)C2=CC=C(C=C2)C(F)(F)F)C(=O)NC3=C(C=C4C(=C3)C=NN4)F
Procedure, shortened: as §1

[15] = compound: CC1=C(C2=C(C=C1)C(=O)C3=CC=CC=C3N2CCCN)C
Procedure, shortened: as §1

Measured: log2 fold change

ATP5MC2 isoform 2 (UniProt Q06055)
inactive: erlotinib 0.035 | [1] -0.113 | [2] -0.021 | [3] 0.022 | [4] 0.017 | [5] 0.048 | [6] 0.059 | [7] 0.031 | [8] 0.008 | [9] 0.056 | IRAK-1-4 Inhibitor I 0.078 | ibrutinib -0.032 | [10] -0.086 | ralimetinib -0.094 | [11] -0.109 | [12] -0.014 | [13] -0.157 | pinometostat 0.053 | [14] -0.084 | [15] -0.005

ATG13 isoform 5 (UniProt O75143)
inactive: erlotinib -0.017 | [1] 0.011 | [2] -0.069 | [3] 0.007 | [4] 0.037 | [5] 0.059 | [6] -0.033 | [7] -0.071 | [8] 0.011 | [9] -0.054 | IRAK-1-4 Inhibitor I 0 | ibrutinib 0.055 | [10] -0.051 | ralimetinib 0.051 | [11] -0.005 | [12] -0.03 | [13] 0.116 | pinometostat 0.001 | [14] 0.003 | [15] 0.005

ARV1 (UniProt Q9H2C2)
inactive: erlotinib -0.038 | [1] 0.072 | [2] 0.069 | [3] 0.021 | [4] 0.042 | [5] 0 | [6] 0.015 | [7] -0.032 | [8] 0.028 | [9] 0.057 | IRAK-1-4 Inhibitor I 0.011 | ibrutinib 0.013 | [10] -0.038 | ralimetinib -0.111 | [11] 0.004 | [12] 0.022 | [13] 0.005 | pinometostat -0.018 | [14] -0.038 | [15] -0.033

ATG16L1 (UniProt Q676U5)
inactive: erlotinib 0.017 | [1] 0.107 | [2] 0.014 | [3] -0.014 | [4] 0.021 | [5] 0.06 | [6] 0.002 | [7] -0.007 | [8] -0.027 | [9] 0.016 | IRAK-1-4 Inhibitor I 0.025 | ibrutinib -0.024 | [10] -0.061 | ralimetinib -0.04 | [11] -0.053 | [12] -0.054 | [13] 0.006 | pinometostat -0.036 | [14] -0.007 | [15] 0.046

ASPM (UniProt Q8IZT6)
inactive: erlotinib -0.023 | [1] 0.135 | [2] -0.007 | [3] 0.073 | [4] -0.034 | [5] -0.076 | [6] -0.017 | [7] 0.003 | [8] -0.015 | [9] 0.08 | IRAK-1-4 Inhibitor I -0.034 | ibrutinib -0.006 | [10] -0.012 | ralimetinib -0.001 | [11] -0.081 | [12] 0.079 | [13] 0.03 | pinometostat -0.071 | [14] -0.2 | [15] 0.083

ARPC3 (UniProt O15145)
inactive: erlotinib -0.039 | [1] 0.048 | [2] 0.014 | [3] -0.027 | [4] -0.02 | [5] -0.032 | [6] 0.044 | [7] 0.001 | [8] -0.052 | [9] -0.035 | IRAK-1-4 Inhibitor I 0.032 | ibrutinib 0.024 | [10] -0.002 | ralimetinib -0.027 | [11] -0.009 | [12] 0.078 | [13] 0.049 | pinometostat -0.048 | [14] -0.061 | [15] 0.049

ATP13A1 (UniProt Q9HD20)
inactive: erlotinib -0.023 | [1] 0.06 | [2] 0.037 | [3] 0.005 | [4] 0.024 | [5] 0.033 | [6] -0.007 | [7] -0.005 | [8] -0.017 | [9] 0.018 | IRAK-1-4 Inhibitor I 0.014 | ibrutinib -0.02 | [10] -0.007 | ralimetinib -0.022 | [11] -0.141 | [12] -0.018 | [13] -0.019 | pinometostat 0.028 | [14] -0.036 | [15] 0.081

ARRB2 isoform 4 (UniProt P32121)
inactive: erlotinib 0.032 | [1] -0.008 | [2] 0.012 | [3] -0.116 | [4] 0.138 | [5] -0.004 | [6] -0.089 | [7] -0.003 | [8] -0.01 | [9] 0.081 | IRAK-1-4 Inhibitor I -0.008 | ibrutinib 0.052 | [10] -0.021 | ralimetinib -0.13 | [11] 0.014 | [12] 0.044 | [13] 0.018 | pinometostat 0.007 | [14] -0.052 | [15] 0.094

ARMT1 (UniProt Q9H993)
inactive: erlotinib 0.172 | [1] 0.217 | [2] -0.139 | [3] -0.044 | [4] 0.11 | [5] -0.027 | [6] -0.028 | [7] -0.017 | [8] 0.011 | [9] -0.432 | IRAK-1-4 Inhibitor I -0.303 | ibrutinib 0 | [10] -0.03 | ralimetinib 0.184 | [11] -0.163 | [12] -0.438 | [13] 0.175 | pinometostat 0.272 | [14] 0.039 | [15] -0.245

ASCC1 isoform 2 (UniProt Q8N9N2)
inactive: erlotinib 0.024 | [1] 0.028 | [2] -0.077 | [3] -0.016 | [4] 0.023 | [5] 0.046 | [6] 0.004 | [7] -0.012 | [8] 0.038 | [9] 0.065 | IRAK-1-4 Inhibitor I -0.015 | ibrutinib -0.037 | [10] -0.045 | ralimetinib 0.058 | [11] -0.064 | [12] -0.125 | [13] 0.068 | pinometostat 0.065 | [14] -0.007 | [15] -0.028

ARMC6 (UniProt Q6NXE6)
inactive: erlotinib 0.073 | [1] -0.044 | [2] -0.359 | [3] 0.022 | [4] 0 | [5] 0.005 | [6] -0.028 | [7] 0.018 | [8] -0.016 | [9] -0.201 | IRAK-1-4 Inhibitor I -0.185 | ibrutinib -0.018 | [10] 0.17 | ralimetinib 0.28 | [11] -0.002 | [12] -0.241 | [13] 0.266 | pinometostat 0.417 | [14] 0.356 | [15] -0.023

ATP5PF isoform 2 (UniProt P18859)
inactive: erlotinib -0.126 | [1] -0.042 | [2] 0.2 | [3] -0.004 | [4] 0.112 | [5] 0.057 | [6] 0.006 | [7] 0.03 | [8] 0.039 | [9] -0.143 | IRAK-1-4 Inhibitor I 0.028 | ibrutinib 0.013 | [10] -0.019 | ralimetinib -0.132 | [11] -0.036 | [12] 0.127 | [13] -0.057 | pinometostat -0.097 | [14] 0.015 | [15] -0.165

ASAH1 isoform 2 (UniProt Q13510)
inactive: erlotinib -0.105 | [1] -0.009 | [2] 0.116 | [3] 0.056 | [4] -0.019 | [5] 0 | [6] 0.005 | [7] -0.037 | [8] -0.016 | [9] 0.028 | IRAK-1-4 Inhibitor I 0.055 | ibrutinib 0.05 | [10] -0.029 | ralimetinib -0.069 | [11] 0.011 | [12] 0.134 | [13] -0.023 | pinometostat 0.003 | [14] 0.007 | [15] 0.003

ARRB1 (UniProt P49407)
inactive: erlotinib 0.017 | [1] 0.139 | [2] 0 | [3] 0 | [4] -0.045 | [5] -0.007 | [6] -0.067 | [7] 0.029 | [8] -0.011 | [9] 0.055 | IRAK-1-4 Inhibitor I 0.045 | ibrutinib 0.007 | [10] 0.073 | ralimetinib -0.056 | [11] -0.008 | [12] 0.003 | [13] -0.023 | pinometostat -0.016 | [14] 0.021 | [15] 0.059

ARL8A (UniProt Q96BM9)
inactive: erlotinib 0.048 | [1] -0.019 | [2] 0.043 | [3] -0.009 | [4] 0.05 | [5] 0.003 | [6] -0.11 | [7] 0.032 | [8] 0.145 | [9] -0.029 | IRAK-1-4 Inhibitor I 0.093 | ibrutinib 0.037 | [10] 0.041 | ralimetinib -0.058 | [11] -0.016 | [12] -0.053 | [13] 0.044 | pinometostat 0.012 | [14] -0.008 | [15] -0.119

Two records drawn at random from the list so far, as already listed:
ARMC6 (UniProt Q6NXE6)
inactive: erlotinib 0.073 | [1] -0.044 | [2] -0.359 | [3] 0.022 | [4] 0 | [5] 0.005 | [6] -0.028 | [7] 0.018 | [8] -0.016 | [9] -0.201 | IRAK-1-4 Inhibitor I -0.185 | ibrutinib -0.018 | [10] 0.17 | ralimetinib 0.28 | [11] -0.002 | [12] -0.241 | [13] 0.266 | pinometostat 0.417 | [14] 0.356 | [15] -0.023

ARRB1 (UniProt P49407)
inactive: erlotinib 0.017 | [1] 0.139 | [2] 0 | [3] 0 | [4] -0.045 | [5] -0.007 | [6] -0.067 | [7] 0.029 | [8] -0.011 | [9] 0.055 | IRAK-1-4 Inhibitor I 0.045 | ibrutinib 0.007 | [10] 0.073 | ralimetinib -0.056 | [11] -0.008 | [12] 0.003 | [13] -0.023 | pinometostat -0.016 | [14] 0.021 | [15] 0.059

(next part)

ATPAF1 (UniProt Q5TC12)
inactive: erlotinib -0.008 | [1] 0.06 | [2] 0.081 | [3] 0.033 | [4] -0.022 | [5] 0.005 | [6] -0.037 | [7] -0.044 | [8] -0.06 | [9] 0.053 | IRAK-1-4 Inhibitor I 0.032 | ibrutinib 0.026 | [10] 0.053 | ralimetinib -0.054 | [11] -0.025 | [12] -0.057 | [13] 0.062 | pinometostat 0.023 | [14] 0.002 | [15] -0.019

Reference: the supplement of paper PMC10849652
